Test results from the supplement of paper PMC10849652.
Some of the results follow.

The chains behind the UniProt entries cited, without tags or fusion partners. Where a name states a change or a piece, a line headed by the entry shows the natural chain unless it says otherwise.
UniProt Q3SXY8: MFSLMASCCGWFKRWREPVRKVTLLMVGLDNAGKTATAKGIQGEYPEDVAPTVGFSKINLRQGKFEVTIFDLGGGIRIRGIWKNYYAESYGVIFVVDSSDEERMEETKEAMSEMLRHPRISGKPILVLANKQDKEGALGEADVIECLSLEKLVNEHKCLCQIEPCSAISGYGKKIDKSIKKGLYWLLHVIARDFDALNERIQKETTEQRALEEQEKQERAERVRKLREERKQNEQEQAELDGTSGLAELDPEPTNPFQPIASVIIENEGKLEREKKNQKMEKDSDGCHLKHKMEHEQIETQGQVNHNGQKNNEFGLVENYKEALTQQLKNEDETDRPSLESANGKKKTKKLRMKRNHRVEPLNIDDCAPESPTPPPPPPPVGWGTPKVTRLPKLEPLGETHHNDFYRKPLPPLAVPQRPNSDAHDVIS
UniProt P98196: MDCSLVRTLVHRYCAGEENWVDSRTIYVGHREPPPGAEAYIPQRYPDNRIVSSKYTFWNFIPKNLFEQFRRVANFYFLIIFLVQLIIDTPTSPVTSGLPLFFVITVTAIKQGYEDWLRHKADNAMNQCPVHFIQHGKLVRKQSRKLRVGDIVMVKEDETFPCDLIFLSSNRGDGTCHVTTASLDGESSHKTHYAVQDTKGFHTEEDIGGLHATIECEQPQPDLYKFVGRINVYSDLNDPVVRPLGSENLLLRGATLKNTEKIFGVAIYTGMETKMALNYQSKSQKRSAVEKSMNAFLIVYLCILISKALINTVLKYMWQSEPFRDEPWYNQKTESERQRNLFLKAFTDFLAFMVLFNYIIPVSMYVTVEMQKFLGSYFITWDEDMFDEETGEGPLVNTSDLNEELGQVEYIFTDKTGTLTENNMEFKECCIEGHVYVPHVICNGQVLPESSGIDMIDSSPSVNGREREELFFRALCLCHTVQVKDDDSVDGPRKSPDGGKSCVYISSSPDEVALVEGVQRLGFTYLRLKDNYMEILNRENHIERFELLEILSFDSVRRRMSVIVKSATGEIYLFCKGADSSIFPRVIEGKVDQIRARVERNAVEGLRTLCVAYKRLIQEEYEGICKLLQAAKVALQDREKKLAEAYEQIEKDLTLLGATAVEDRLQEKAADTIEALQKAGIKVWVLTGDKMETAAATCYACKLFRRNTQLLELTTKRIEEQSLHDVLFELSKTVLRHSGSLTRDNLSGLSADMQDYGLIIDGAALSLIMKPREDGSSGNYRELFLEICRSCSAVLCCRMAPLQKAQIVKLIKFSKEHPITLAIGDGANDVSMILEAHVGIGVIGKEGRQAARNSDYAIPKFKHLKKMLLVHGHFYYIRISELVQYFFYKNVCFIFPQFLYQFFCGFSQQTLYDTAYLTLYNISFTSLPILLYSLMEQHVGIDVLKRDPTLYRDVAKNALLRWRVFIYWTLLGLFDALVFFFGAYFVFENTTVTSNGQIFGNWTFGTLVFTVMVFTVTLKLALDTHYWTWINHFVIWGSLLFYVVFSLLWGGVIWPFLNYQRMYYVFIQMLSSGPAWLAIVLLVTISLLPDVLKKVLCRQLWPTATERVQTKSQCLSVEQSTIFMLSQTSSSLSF
UniProt Q8WYN0: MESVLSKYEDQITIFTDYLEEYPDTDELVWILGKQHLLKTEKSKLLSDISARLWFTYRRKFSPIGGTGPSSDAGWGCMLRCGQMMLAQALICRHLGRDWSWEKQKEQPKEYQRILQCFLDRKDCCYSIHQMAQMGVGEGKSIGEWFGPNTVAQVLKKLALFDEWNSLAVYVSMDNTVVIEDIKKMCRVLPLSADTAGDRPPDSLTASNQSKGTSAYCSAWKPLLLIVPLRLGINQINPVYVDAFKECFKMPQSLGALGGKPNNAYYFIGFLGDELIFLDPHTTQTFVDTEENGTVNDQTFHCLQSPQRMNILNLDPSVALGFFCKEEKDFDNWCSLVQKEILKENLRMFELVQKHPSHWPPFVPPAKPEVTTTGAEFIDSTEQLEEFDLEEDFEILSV
UniProt Q8IXJ9: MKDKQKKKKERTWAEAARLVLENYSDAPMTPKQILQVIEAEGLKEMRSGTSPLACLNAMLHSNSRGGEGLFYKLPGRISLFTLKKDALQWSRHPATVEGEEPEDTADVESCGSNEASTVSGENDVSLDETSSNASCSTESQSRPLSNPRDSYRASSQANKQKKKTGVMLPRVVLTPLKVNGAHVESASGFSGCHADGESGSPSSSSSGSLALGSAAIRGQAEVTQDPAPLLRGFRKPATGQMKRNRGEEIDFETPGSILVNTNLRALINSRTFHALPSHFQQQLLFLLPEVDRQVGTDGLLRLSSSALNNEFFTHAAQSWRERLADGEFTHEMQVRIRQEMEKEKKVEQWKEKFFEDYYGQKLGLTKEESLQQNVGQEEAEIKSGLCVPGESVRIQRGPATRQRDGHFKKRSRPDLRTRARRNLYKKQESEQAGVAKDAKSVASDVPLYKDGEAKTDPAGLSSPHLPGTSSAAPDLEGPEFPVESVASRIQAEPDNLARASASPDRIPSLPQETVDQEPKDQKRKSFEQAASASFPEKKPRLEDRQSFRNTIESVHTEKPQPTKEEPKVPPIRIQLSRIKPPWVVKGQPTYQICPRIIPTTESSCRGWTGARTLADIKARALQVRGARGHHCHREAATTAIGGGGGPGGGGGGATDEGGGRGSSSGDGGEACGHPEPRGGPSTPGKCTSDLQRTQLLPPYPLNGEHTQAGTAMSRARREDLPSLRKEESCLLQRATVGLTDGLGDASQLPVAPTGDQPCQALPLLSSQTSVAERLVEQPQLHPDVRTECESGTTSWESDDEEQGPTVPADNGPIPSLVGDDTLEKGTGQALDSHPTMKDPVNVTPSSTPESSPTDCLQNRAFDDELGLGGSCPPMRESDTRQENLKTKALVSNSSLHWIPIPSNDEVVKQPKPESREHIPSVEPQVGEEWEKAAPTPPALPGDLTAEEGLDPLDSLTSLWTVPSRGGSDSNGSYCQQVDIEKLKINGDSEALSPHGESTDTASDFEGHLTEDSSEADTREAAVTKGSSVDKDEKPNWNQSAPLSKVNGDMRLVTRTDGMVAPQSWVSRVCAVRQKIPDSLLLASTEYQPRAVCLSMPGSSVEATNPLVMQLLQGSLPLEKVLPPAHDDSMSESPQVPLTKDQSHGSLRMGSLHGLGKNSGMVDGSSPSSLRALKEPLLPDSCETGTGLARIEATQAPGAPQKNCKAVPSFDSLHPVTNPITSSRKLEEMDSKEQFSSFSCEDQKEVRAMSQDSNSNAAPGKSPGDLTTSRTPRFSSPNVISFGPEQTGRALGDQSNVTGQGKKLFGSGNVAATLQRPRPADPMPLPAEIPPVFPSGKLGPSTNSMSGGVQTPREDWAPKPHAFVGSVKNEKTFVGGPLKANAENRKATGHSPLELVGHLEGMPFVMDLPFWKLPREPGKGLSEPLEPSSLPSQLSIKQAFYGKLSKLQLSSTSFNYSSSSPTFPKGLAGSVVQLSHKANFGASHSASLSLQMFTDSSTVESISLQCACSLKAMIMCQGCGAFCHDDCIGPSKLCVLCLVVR
UniProt P14415, whole entry, looked up: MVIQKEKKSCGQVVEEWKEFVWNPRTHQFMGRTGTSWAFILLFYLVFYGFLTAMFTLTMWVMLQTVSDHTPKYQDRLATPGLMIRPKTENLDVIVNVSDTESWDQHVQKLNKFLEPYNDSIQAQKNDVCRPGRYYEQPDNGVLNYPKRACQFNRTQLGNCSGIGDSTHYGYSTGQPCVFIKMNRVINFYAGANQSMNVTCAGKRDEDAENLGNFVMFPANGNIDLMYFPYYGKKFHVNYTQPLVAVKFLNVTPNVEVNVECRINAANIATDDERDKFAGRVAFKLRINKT
UniProt Q5TC12: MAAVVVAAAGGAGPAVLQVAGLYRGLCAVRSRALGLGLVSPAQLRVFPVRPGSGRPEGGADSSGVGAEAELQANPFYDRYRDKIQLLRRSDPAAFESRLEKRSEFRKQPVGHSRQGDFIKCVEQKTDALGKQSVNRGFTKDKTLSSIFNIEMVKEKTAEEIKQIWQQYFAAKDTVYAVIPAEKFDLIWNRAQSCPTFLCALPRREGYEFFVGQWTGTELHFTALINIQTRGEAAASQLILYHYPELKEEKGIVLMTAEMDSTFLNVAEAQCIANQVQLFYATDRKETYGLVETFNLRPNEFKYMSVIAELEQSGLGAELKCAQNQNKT
UniProt O95260: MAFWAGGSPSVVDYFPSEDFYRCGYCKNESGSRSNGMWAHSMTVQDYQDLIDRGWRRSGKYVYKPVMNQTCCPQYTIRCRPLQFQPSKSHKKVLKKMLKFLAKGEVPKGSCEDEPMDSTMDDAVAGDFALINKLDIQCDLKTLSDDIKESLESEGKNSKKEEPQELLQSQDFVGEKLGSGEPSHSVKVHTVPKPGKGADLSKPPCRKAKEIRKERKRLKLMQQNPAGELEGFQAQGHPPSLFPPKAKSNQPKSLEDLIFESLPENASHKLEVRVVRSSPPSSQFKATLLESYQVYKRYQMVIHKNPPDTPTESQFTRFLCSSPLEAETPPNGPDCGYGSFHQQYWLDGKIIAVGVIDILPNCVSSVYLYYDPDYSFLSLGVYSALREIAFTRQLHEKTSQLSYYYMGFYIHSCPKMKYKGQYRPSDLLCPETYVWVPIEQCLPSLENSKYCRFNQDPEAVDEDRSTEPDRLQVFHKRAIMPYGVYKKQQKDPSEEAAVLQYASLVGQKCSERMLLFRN
UniProt P49407: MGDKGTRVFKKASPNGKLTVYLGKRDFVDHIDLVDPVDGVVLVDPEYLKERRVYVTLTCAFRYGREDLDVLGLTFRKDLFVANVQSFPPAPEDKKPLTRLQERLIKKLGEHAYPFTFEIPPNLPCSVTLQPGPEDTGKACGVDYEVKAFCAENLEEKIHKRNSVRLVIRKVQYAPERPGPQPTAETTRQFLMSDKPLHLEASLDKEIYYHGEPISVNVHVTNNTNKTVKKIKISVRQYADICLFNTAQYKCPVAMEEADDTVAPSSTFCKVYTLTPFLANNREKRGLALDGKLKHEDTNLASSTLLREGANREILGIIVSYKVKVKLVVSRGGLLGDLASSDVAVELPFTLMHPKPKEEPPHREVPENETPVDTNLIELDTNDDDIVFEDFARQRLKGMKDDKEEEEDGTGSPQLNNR
UniProt O00244: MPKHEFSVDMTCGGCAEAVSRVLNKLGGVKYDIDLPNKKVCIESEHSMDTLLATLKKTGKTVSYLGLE
UniProt Q76L83: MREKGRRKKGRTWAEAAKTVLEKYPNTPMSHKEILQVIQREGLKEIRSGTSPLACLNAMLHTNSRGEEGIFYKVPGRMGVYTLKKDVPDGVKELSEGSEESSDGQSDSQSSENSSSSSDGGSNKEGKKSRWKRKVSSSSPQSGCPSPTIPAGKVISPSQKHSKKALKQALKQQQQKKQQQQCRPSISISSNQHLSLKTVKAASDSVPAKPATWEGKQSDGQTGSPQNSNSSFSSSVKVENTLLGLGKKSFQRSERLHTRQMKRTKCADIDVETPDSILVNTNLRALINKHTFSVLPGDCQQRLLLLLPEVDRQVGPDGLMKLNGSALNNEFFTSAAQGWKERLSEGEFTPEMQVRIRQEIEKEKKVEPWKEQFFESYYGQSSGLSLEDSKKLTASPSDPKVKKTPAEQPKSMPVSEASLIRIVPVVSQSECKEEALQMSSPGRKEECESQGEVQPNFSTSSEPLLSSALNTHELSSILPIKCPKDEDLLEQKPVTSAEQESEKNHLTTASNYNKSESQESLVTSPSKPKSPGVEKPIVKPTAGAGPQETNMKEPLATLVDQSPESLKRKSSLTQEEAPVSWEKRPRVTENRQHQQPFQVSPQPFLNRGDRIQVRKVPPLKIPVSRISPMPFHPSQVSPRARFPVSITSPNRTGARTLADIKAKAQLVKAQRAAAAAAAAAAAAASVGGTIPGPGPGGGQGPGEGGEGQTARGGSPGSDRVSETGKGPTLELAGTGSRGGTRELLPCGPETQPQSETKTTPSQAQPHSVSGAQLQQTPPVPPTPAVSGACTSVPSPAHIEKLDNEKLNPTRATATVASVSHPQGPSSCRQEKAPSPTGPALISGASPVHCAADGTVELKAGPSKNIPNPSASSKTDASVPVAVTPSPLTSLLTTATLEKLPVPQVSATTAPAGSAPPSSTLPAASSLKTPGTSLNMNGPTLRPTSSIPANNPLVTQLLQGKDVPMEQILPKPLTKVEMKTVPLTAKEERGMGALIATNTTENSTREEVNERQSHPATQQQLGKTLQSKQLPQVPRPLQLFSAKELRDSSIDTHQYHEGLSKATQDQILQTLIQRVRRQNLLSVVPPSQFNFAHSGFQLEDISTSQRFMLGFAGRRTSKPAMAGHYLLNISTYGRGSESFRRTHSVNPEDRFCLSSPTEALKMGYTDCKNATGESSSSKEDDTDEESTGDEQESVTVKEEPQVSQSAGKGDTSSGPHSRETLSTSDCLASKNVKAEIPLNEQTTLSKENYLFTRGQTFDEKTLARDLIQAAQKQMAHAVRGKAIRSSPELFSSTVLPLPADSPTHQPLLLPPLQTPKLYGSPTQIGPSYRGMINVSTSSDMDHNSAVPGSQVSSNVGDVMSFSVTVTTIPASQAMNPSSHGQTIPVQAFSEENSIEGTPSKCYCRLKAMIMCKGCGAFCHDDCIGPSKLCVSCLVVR

Columns and labels:
Assay in all cases: log2 fold change, soluble protein after heating vs DMSO (PISA); higher = thermal stabilisation; K562 cells, 10 uM, 30 min; active = over 0.2 and 3.5 SD of the protein, either way, in both replicates (recomputed)
bafetinib = compound: Cc1ccc(NC(=O)c2ccc(CN3CC[C@H](N(C)C)C3)c(C(F)(F)F)c2)cc1Nc1nccc(-c2cncnc2)n1 [bafetinib]
Method in brief: (§1)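 Aliquots of K562 cells (2×10^6 cells/mL) treated with 10 μM compound for 30 min were heated for 3 min over 48°C-58°C. After pooling and extraction in PBS with 0.5% NP-40 at 4°C, soluble protein from a 21,000xg, 90 min spin was quantified by TMTpro 16plex LC-MS/MS with channel sums equalised. Thermal stability is expressed against control samples, from duplicates, as a log2 fold change.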

[1] = compound: Cc1cccc(CC(=O)N2CCc3c2ccc(-c2cn(C)c4ncnc(N)c24)c3F)n1
Method in brief: as §1

nilotinib = compound: Cc1cn(-c2cc(NC(=O)c3ccc(C)c(Nc4nccc(-c5cccnc5)n4)c3)cc(C(F)(F)F)c2)cn1 [nilotinib]
Method in brief: as §1

[2] = compound: Cc1nc(Nc2n[nH]c3c2CN(C(=O)N[C@H](CN(C)C)c2ccccc2)C3(C)C)c2sccc2n1
Method in brief: as §1

dasatinib = compound: Cc1nc(Nc2ncc(C(=O)Nc3c(C)cccc3Cl)s2)cc(N2CCN(CCO)CC2)n1 [dasatinib]
Method in brief: as §1

[3] = compound: Cc1ncc(-c2ccnc(Nc3ccc(S(C)(=O)=O)cc3)n2)n1C(C)C
Method in brief: as §1

[4] = compound: Cn1cc(-c2ccc3c(c2)CCN3C(=O)Cc2cccc(C(F)(F)F)c2)c2c(N)ncnc21
Method in brief: as §1

[5] = compound: Cn1cc(-c2ccc3nnc(C(F)(F)c4ccc5ncccc5c4)n3n2)cn1
Method in brief: as §1

tipifarnib = compound: Cn1cncc1[C@@](N)(c1ccc(Cl)cc1)c1ccc2c(c1)c(-c1cccc(Cl)c1)cc(=O)n2C [tipifarnib]
Method in brief: as §1

mubritinib = compound: FC(F)(F)c1ccc(/C=C/c2nc(COc3ccc(CCCCn4ccnn4)cc3)co2)cc1 [mubritinib]
Method in brief: as §1

Measured: log2 fold change

ATP1A4 (UniProt Q13733)
inactive: bafetinib 0.038 | [1] 0.036 | nilotinib 0.058 | [2] -0.041 | dasatinib 0.076 | [3] 0.033 | [4] 0.028 | [5] -0.041 | tipifarnib -0.039 | mubritinib 0.001

ASAP1 isoform 2 (UniProt Q9ULH1)
inactive: bafetinib 0.151 | [1] 0.037 | nilotinib -0.034 | [2] -0.026 | dasatinib -0.071 | [3] 0.008 | [4] 0.031 | [5] 0.029 | tipifarnib 0 | mubritinib 0.122

ARL13B (UniProt Q3SXY8)
inactive: bafetinib -0.016 | [1] 0.03 | nilotinib 0.067 | [2] -0.004 | dasatinib 0.124 | [3] -0.036 | [5] -0.086 | mubritinib 0.07

ARMC8 isoform 6 (UniProt Q8IUR7)
inactive: bafetinib -0.012 | nilotinib -0.034 | [2] -0.079 | [3] -0.052

ATP2C1 isoform 3 (UniProt P98194)
inactive: bafetinib -0.024 | [4] -0.148 | tipifarnib 0 | mubritinib -0.056

ATP11A (UniProt P98196)
inactive: bafetinib -0.028 | [1] -0.002 | nilotinib 0.113 | [2] -0.012 | dasatinib -0.01 | [3] 0.029 | [4] -0.006 | [5] 0.01 | tipifarnib 0.051 | mubritinib 0.056

ARL5B (UniProt Q96KC2)
inactive: bafetinib 0.083 | [1] 0.019 | nilotinib -0.012 | [2] 0.088 | dasatinib 0.11 | [3] 0.147 | [4] -0.032 | tipifarnib 0.03 | mubritinib -0.001

ATG4A (UniProt Q8WYN0)
inactive: [4] -0.021

Quoted from the listing (2 entries):
ATP2C1 isoform 3 (UniProt P98194)
inactive: bafetinib -0.024 | [4] -0.148 | tipifarnib 0 | mubritinib -0.056

ATP11A (UniProt P98196)
inactive: bafetinib -0.028 | [1] -0.002 | nilotinib 0.113 | [2] -0.012 | dasatinib -0.01 | [3] 0.029 | [4] -0.006 | [5] 0.01 | tipifarnib 0.051 | mubritinib 0.056

Additional records follow.

ATP5F1B (UniProt F8W0P7)
inactive: bafetinib 0.097 | nilotinib 0.119 | [2] 0.099 | dasatinib 0.09 | [3] 0.202 | [5] 0.039 | tipifarnib -0.066 | mubritinib 0.051

ASCC2 (UniProt Q9H1I8)
inactive: dasatinib -0.209 | [4] -0.285 | [5] 0.015 | mubritinib -0.045

ATP5F1B (UniProt H0YI37)
inactive: bafetinib -0.595 | [1] -0.3 | dasatinib 0.121 | tipifarnib 0.155

ASXL1 (UniProt Q8IXJ9)
inactive: bafetinib 0.213 | [4] -0.022 | tipifarnib 0.062 | mubritinib -0.061

ATP1B2 (UniProt P14415)
inactive: bafetinib -0.146 | [1] -0.014 | dasatinib 0.009 | [4] 0.149 | [5] 0.018 | tipifarnib 0.027 | mubritinib -0.023

ATF7 isoform 6 (UniProt P17544)
active: dasatinib 0.504
inactive: bafetinib 0.02 | nilotinib -0.026 | [2] -0.081 | [3] -0.019 | [4] 0.055 | [5] -0.266 | tipifarnib 0 | mubritinib 0.018

ASB6 (UniProt Q9NWX5)
inactive: bafetinib -0.039 | [1] 0.014 | nilotinib -0.066 | [2] -0.279 | [3] -0.07 | [5] -0.034 | tipifarnib -0.02 | mubritinib 0.037

ATPAF1 (UniProt Q5TC12)
inactive: bafetinib -0.041 | [1] 0.023 | nilotinib 0.024 | [2] 0.053 | dasatinib -0.017 | [3] -0.019 | [4] 0.038 | [5] 0.024 | tipifarnib -0.153 | mubritinib -0.002

ATE1 (UniProt O95260)
inactive: dasatinib 0.181 | [4] -0.015 | tipifarnib 0.104

ARSK (UniProt Q6UWY0)
inactive: bafetinib -0.021 | nilotinib 0.057 | [2] -0.073 | [3] -0.045 | [4] -0.078 | mubritinib 0.04

ASPH (UniProt Q12797)
inactive: bafetinib 0.035 | [1] -0.009 | nilotinib 0.018 | [2] 0.047 | dasatinib 0.103 | [3] -0.015 | [4] -0.086 | [5] -0.046 | tipifarnib 0.079 | mubritinib -0.1

ASNSD1 (UniProt Q9NWL6)
inactive: bafetinib -0.004 | nilotinib -0.134 | [2] -0.139 | [3] 0.027

ATF1 (UniProt P18846)
inactive: bafetinib -0.12 | [1] 0.018 | nilotinib 0.035 | [2] -0.09 | [3] 0.064 | [4] -0.006 | tipifarnib 0.06 | mubritinib 0.057

ATF3 (UniProt P18847)
inactive: bafetinib -0.136 | nilotinib -0.097 | [2] 0.004 | dasatinib -0.07 | [3] -0.103 | [4] -0.044 | [5] -0.019 | tipifarnib 0.108

ASMTL (UniProt O95671)
inactive: bafetinib 0.256 | [1] 0.081 | nilotinib -0.242 | [2] 0.006 | dasatinib 0 | [3] -0.037 | [4] 0.052 | [5] 0.2 | tipifarnib -0.031 | mubritinib 0.15

ATG2A (UniProt Q2TAZ0)
inactive: [1] -0.098

ATPSCKMT (UniProt Q6P4H8)
inactive: bafetinib -0.008 | [1] -0.05 | nilotinib 0.023 | [2] -0.011 | dasatinib 0.131 | [3] -0.071 | [4] 0.091 | tipifarnib -0.002 | mubritinib 0.054

ARPIN isoform 2 (UniProt Q7Z6K5)
inactive: bafetinib -0.122 | [1] 0.235 | nilotinib 0.124 | [2] -0.27 | [3] -0.034 | [5] 0.216 | tipifarnib 0.103 | mubritinib 0.068

ATG10 (UniProt Q9H0Y0)
inactive: bafetinib -0.051 | [1] 0 | nilotinib -0.177 | [2] -0.007 | [3] -0.173

ARRB1 isoform 2 (UniProt P49407)
inactive: bafetinib -0.135 | [1] 0.079 | dasatinib 0.048 | [4] -0.052 | [5] -0.027 | tipifarnib 0.048 | mubritinib -0.033

ATOX1 (UniProt O00244)
active: tipifarnib -0.404
inactive: bafetinib -0.02 | [1] 0.043 | nilotinib 0.047 | [2] 0.036 | dasatinib 0.161 | [3] -0.009 | [4] 0.174 | [5] -0.084 | mubritinib 0.004

ATG9A (UniProt Q7Z3C6)
inactive: bafetinib -0.048 | [1] -0.013 | nilotinib -0.04 | [2] -0.108 | dasatinib -0.046 | [3] -0.014 | [4] 0.06 | [5] -0.022 | tipifarnib 0.168 | mubritinib 0.042

ATG12 (UniProt O94817)
inactive: bafetinib -0.017 | [1] 0.195 | nilotinib -0.008 | [2] 0.034 | dasatinib 0.001 | [3] -0.01 | [4] 0.05 | tipifarnib -0.038 | mubritinib 0.069

ARL6 isoform 2 (UniProt Q9H0F7)
inactive: [5] 0.118

ATF7IP isoform 4 (UniProt Q6VMQ6)
inactive: bafetinib -0.135 | [1] -0.078 | nilotinib -0.27 | [2] 0.041 | [3] -0.009 | [4] 0.018 | mubritinib 0.322

ARL4A (UniProt P40617)
inactive: bafetinib 0.145 | mubritinib 0.078

ATP2B2 (UniProt Q01814)
inactive: [1] 0.015 | dasatinib -0.208 | [4] 0.155 | tipifarnib -0.202

ATP1A2 (UniProt P50993)
inactive: dasatinib -0.745

ATG14 (UniProt Q6ZNE5)
inactive: bafetinib -0.04 | tipifarnib -0.225

ASXL2 (UniProt Q76L83)
inactive: dasatinib -0.091
